These are yes or no findings as the source states them, for the method shown. In cells and extracts the contact can be indirect. Some results given as binding are weak or reduced against the parent protein; the word gives no strength.
Target: NOP2/Sun RNA methyltransferase family member 2 (NSUN2), flag-tagged (UniProt Q08J23)
Test: co-IP; co-IP in H1299 cells by the text (A549 cells by the legend of Fig. 8E); antibodies and bait not stated

Sequences of proteins named here, by UniProt entry; tags and fusion partners are left off.
UniProt Q08J23: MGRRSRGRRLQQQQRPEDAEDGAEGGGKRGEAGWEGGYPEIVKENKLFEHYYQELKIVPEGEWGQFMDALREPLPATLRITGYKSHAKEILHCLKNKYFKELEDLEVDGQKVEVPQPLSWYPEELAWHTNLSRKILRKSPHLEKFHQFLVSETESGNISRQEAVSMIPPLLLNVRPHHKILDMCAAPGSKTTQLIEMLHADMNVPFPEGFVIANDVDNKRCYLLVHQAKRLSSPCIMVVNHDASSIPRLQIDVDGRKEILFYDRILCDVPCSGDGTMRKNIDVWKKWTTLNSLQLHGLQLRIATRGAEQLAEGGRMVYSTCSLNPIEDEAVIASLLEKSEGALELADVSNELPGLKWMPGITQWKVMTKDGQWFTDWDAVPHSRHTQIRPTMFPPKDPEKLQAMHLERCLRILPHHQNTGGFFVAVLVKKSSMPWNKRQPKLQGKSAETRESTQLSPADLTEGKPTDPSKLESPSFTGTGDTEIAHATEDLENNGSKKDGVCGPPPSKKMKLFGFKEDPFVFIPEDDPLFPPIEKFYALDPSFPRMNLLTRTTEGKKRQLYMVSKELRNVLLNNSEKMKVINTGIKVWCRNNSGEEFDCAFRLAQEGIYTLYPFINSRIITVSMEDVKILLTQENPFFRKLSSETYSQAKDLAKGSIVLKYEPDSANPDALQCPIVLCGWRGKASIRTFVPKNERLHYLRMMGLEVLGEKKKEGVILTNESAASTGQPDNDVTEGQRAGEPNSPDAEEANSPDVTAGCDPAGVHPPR
UniProt P67809: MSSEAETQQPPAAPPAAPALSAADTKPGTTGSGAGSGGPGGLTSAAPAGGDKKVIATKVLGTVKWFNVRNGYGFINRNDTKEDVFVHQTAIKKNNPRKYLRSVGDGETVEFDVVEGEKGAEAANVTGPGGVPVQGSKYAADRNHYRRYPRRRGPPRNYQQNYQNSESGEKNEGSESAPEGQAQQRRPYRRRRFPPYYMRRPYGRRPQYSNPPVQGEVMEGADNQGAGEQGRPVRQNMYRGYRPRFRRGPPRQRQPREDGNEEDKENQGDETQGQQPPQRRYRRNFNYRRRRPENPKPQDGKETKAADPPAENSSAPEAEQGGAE

Which binding does the source give for YBX1 (from UniProt P67809 1-324) here?
The binding was “binds”.
